Assay results reported in paper PMC9477845.
Results are given in words; binding and its absence hold for the method and conditions named. Binding seen in cells or lysates may run through a third protein. Some binding calls cover weakened binding; strength is not graded here.

Protein sequences, listed by entry. Tags and fused reporters are not part of them.
UniProt Q16877: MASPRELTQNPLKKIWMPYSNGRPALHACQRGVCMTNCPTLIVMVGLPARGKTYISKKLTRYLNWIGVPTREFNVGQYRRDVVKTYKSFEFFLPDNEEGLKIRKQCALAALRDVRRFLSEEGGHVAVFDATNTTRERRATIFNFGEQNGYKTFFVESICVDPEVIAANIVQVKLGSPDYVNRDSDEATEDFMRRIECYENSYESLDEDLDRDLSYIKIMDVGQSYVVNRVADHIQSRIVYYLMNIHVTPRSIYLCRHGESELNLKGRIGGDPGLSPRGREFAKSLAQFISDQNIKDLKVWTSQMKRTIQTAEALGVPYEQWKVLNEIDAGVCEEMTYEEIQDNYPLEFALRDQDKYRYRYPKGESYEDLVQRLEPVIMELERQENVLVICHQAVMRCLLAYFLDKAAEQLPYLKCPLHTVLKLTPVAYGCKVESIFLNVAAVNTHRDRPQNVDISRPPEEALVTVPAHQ
UniProt Q9P1W9: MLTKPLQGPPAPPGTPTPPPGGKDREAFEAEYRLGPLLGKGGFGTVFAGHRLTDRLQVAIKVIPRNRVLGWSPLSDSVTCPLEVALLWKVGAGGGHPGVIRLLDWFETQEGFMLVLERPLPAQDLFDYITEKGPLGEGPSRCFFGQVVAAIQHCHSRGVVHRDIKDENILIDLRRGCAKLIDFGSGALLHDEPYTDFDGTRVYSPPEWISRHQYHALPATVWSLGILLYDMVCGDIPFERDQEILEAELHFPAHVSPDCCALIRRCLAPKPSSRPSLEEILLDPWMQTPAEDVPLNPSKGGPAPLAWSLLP

Experiments:
[1] = target: PFKFB4 (6-phosphofructose-2-kinase/fructose-2,6-bisphosphatase 4), endogenous (human (endogenous in ESC endometriosis stromal cells)) (UniProt Q16877); experiment: co-IP; ESC cells; lysate incubated overnight at 4 °C with magnetic beads carrying antibody (anti-PFKFB4, Fig. 2D; anti-PIM2, Fig. 2E); Western blot
[2] = target: HA-PFKFB4 (6-phosphofructose-2-kinase/fructose-2,6-bisphosphatase 4) (UniProt Q16877); experiment: co-IP; 293T cells, transfected; lysate incubated overnight at 4 °C with magnetic beads carrying antibody (anti-HA, Fig. 2B; anti-Flag, Fig. 2C); Western blot
[3] = target: GST-PFKFB4 (UniProt Q16877); experiment: pull-down; GST or GST-PFKFB4 as bait; in vitro binding; procedure as in ref. 29

In the case of “PIM2 (proviral insertion in murine lymphomas 2), endogenous (from UniProt Q9P1W9 1-311)”, the binding [1] is reported as “binds”.

In the case of “Flag-PIM2 (proviral insertion in murine lymphomas 2) (from UniProt Q9P1W9 1-311)”, the binding [2] is reported as “binds”.

“PIM2 used in the GST pull-down (from UniProt Q9P1W9 1-311)” was tested, and the binding [3] was “binds”.
